{"source": "PubChem BioAssay AID1159578 (Peter MacCallum Cancer Centre, 2015)", "purpose": "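Genome-wide hunt for genes controlling movement of lymphatic endothelial cells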 (primary screen)", "system": "human lymphatic endothelial cells", "reagent": "siRNA pool against human genes, 40 nM", "time to read-out": "48 h after transfection", "read-out": "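Cells stained with dye and imaged after a scratch; covered wound area and nuclei counted, duplicates averaged, migration set against mock wells and turned into a robust z-score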", "scale": "migration robust z-score: higher = faster migration into the scratch; nuclei per well: higher = more cells in the well", "rule for the call": "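Migration changed when robust z exceeds 2 or falls below -2 and mean nuclei number is at least 3300; otherwise not called changed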", "calls": "active = migration changed; inactive = no migration change, or too few cells", "note": "The deposit covers about 18,000 reagents; shown is an unselected part. About 1,030 of them (5.7%) were called active. 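Inactive calls also include pools with fewer than 3300 nuclei, whose migration was not assessed.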 Raw values vary from plate to plate and are shown uncorrected. Further read-outs or replicates are left out here."}
{"gene knocked down": "SLC25A17", "migration robust z-score": 3.66, "migration class with cell-count check": "migration z above 2; enough cells", "nuclei per well, duplicate mean": 5924, "outcome": "active"}
{"gene knocked down": "ATP6V1G2", "migration robust z-score": -0.78, "migration class with cell-count check": "migration z between -2 and 2; enough cells", "nuclei per well, duplicate mean": 6522, "outcome": "inactive"}
{"gene knocked down": "VPS26A", "migration robust z-score": 0.62, "migration class with cell-count check": "migration z between -2 and 2; enough cells", "nuclei per well, duplicate mean": 5652, "outcome": "inactive"}
{"gene knocked down": "R3HDM4", "migration robust z-score": -1.03, "migration class with cell-count check": "migration z between -2 and 2; enough cells", "nuclei per well, duplicate mean": 6184, "outcome": "inactive"}
{"gene knocked down": "SLC24A3", "migration robust z-score": -0.18, "migration class with cell-count check": "migration z between -2 and 2; enough cells", "nuclei per well, duplicate mean": 5920, "outcome": "inactive"}
{"gene knocked down": "ANKRD45", "migration robust z-score": 0.1, "migration class with cell-count check": "migration z between -2 and 2; enough cells", "nuclei per well, duplicate mean": 5292, "outcome": "inactive"}
{"gene knocked down": "COL27A1", "migration robust z-score": -0.05, "migration class with cell-count check": "migration z between -2 and 2; enough cells", "nuclei per well, duplicate mean": 6522, "outcome": "inactive"}
{"gene knocked down": "MNDA", "migration robust z-score": 0.72, "migration class with cell-count check": "migration z between -2 and 2; enough cells", "nuclei per well, duplicate mean": 4736, "outcome": "inactive"}
{"gene knocked down": "ZDHHC24", "migration robust z-score": -1.4, "migration class with cell-count check": "migration z between -2 and 2; enough cells", "nuclei per well, duplicate mean": 6186, "outcome": "inactive"}
{"gene knocked down": "PKD1", "migration robust z-score": 0.73, "migration class with cell-count check": "migration z between -2 and 2; enough cells", "nuclei per well, duplicate mean": 4224, "outcome": "inactive"}
{"gene knocked down": "TIGD7", "migration robust z-score": 0.52, "migration class with cell-count check": "migration z between -2 and 2; enough cells", "nuclei per well, duplicate mean": 5742, "outcome": "inactive"}
{"gene knocked down": "LAMB4", "migration robust z-score": -0.15, "migration class with cell-count check": "migration z between -2 and 2; enough cells", "nuclei per well, duplicate mean": 5933, "outcome": "inactive"}
